From ChEMBL document CHEMBL3988442, “University of Dundee, Small-Polar-MMV Screening Library” (2021).

The chains behind the UniProt entries cited, without tags or fusion partners. Residues count along the entry.
UniProt I6X8D2, whole entry: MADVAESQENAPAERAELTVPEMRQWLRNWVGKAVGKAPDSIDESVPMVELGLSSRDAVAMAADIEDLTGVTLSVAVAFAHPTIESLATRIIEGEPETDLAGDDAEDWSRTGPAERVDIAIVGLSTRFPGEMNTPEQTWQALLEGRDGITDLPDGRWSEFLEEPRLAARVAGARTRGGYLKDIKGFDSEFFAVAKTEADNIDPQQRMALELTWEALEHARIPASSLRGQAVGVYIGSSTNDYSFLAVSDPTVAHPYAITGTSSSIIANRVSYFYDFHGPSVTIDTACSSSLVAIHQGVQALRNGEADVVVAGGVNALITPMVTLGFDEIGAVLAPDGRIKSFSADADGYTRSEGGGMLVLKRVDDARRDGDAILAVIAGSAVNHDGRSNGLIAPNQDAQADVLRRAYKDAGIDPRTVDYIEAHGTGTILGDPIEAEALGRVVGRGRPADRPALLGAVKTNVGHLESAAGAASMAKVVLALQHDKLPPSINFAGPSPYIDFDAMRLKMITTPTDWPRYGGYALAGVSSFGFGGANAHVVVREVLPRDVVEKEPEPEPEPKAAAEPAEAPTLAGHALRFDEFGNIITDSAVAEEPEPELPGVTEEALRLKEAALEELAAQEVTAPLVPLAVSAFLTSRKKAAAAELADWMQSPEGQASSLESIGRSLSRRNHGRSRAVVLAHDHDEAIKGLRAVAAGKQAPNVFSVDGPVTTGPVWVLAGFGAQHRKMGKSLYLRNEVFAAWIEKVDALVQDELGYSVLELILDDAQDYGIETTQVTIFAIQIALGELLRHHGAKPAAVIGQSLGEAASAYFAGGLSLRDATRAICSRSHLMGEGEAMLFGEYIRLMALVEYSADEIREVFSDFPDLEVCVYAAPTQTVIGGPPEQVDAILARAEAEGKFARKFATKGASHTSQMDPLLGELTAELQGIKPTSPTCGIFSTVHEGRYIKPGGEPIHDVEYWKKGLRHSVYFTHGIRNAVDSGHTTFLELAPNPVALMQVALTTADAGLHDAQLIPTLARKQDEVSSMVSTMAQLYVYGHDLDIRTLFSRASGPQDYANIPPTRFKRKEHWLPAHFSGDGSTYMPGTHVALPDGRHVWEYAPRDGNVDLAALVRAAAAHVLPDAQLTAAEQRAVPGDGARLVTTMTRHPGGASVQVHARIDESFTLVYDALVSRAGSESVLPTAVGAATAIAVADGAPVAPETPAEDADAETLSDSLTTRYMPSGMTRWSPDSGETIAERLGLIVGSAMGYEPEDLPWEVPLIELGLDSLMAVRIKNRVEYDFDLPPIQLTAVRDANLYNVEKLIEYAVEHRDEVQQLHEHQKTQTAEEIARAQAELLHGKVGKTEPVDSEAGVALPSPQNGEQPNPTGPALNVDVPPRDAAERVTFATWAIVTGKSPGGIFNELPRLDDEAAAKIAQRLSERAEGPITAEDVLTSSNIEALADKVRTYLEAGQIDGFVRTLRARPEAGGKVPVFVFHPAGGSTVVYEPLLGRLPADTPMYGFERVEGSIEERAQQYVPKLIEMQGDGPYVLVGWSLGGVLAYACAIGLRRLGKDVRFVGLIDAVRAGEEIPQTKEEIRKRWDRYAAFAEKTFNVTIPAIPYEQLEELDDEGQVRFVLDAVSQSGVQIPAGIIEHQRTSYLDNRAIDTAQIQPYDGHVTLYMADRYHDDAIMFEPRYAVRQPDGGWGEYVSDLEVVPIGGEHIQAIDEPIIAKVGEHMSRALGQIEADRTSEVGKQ
UniProt P9WNZ1, whole entry: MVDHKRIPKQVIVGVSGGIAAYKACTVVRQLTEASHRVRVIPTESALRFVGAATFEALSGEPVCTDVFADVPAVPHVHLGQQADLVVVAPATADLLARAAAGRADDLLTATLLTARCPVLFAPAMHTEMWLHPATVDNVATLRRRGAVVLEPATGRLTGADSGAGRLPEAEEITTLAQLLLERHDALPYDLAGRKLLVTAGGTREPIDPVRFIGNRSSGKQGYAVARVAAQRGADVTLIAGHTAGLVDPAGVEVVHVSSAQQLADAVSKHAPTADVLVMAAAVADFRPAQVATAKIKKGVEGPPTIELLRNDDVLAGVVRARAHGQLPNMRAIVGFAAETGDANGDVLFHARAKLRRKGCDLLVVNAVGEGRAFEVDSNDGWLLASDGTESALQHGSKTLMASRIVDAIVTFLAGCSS
UniProt P9WFT3, whole entry: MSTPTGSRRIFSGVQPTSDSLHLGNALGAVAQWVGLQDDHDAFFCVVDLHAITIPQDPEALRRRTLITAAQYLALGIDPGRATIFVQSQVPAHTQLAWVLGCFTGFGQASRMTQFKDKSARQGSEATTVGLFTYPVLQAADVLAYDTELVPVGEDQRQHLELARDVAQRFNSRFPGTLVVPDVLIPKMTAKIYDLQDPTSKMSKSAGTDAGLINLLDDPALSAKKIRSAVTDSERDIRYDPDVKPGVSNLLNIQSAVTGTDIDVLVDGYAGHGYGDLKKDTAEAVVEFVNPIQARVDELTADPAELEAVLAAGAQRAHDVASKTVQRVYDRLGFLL
UniProt A4I591, 1-473: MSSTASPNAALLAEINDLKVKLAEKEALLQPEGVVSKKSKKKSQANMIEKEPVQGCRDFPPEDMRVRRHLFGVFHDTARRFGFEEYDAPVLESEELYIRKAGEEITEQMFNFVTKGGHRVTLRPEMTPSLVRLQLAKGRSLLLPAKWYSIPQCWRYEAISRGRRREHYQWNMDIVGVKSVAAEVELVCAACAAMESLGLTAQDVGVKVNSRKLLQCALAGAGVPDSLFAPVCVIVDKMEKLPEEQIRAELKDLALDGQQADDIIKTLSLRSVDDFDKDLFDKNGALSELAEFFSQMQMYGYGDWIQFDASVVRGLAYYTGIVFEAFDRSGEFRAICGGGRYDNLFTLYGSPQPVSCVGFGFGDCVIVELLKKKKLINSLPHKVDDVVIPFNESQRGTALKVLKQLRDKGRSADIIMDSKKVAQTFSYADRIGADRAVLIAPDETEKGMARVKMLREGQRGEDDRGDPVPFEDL
UniProt Q4DA54, 1-478: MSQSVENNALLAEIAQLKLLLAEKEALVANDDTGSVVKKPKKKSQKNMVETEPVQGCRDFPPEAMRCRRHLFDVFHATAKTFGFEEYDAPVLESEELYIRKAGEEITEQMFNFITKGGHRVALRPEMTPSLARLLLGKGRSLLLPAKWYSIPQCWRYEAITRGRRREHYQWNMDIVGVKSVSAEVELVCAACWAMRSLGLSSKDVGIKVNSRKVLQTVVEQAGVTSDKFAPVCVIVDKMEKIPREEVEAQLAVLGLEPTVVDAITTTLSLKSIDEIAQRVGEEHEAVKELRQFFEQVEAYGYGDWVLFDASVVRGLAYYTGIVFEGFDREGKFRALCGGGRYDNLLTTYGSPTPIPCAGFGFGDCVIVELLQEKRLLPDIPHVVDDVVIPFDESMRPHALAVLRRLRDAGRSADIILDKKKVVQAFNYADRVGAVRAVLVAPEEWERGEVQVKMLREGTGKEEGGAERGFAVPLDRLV

Values are the deposited “Percent Effect”, in %. The controls that fix the scale are not given in the record; negative values are as filed. This is an unselected part of the compounds tested. A dash means the value is not listed here; it may have been measured.

Pks13 thioesterase: 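Polyketide synthase Pks13, Mycobacterium tuberculosis (UniProt I6X8D2). Enzyme assay of the thioesterase domain of polyketide synthase 13; the read-out is not stated. Concentration: 30 µM. Higher reads as stronger inhibition (inferred from which compounds were picked for retests). Size under these conditions: about 67,000 compounds, about 300 of them at 50% or above in at least one test.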
Toxoplasma: 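Assay of Toxoplasma gondii numbers, read through their beta-galactosidase reporter with a colour substrate. Concentration: 10 µM. The record gives no direction; the compounds picked for IC50 retests had high values, so higher reads as fewer parasites. Size under these conditions: about 67,000 compounds, about 260 of them at 50% or above in at least one test.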
CoaBC: 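Enzyme assay of CoaBC with a phosphate dye (Biomol Green) read at 650 nm. Target: Coenzyme A biosynthesis protein CoaBC, Mycobacterium tuberculosis (UniProt P9WNZ1). Concentration: 30 µM. Higher reads as stronger inhibition, judged from the few compounds that gave an IC50. Most strong results did not repeat in a second test. Size under these conditions: about 67,000 compounds, about 40 of them at 50% or above in at least one test.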
MtTrpRS: 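Tryptophan-tRNA ligase, Mycobacterium tuberculosis (UniProt P9WFT3). Enzyme assay of tryptophanyl-tRNA synthetase; the read-out is not stated. Tested at 10 µM. Higher most likely means stronger inhibition; the record gives no direction and few retests gave an IC50. About 65,000 compounds were tested under these conditions; 0.098% (about 64) showed 50% or more at least once.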
LiHisRS: 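Histidine-tRNA ligase, Leishmania infantum (UniProt A4I591). Enzyme assay of histidyl-tRNA synthetase; the read-out is not stated. Concentration: 30 µM. Higher reads as stronger inhibition (inferred: compounds with an IC50 in retests scored well above the rest). The assay is labelled LdHisRS but filed under L. infantum. Size under these conditions: about 69,000 compounds, about 410 of them at 50% or above in at least one test.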
TcHisRS: 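Enzyme assay of histidyl-tRNA synthetase; the read-out is not stated. Target: Histidine-tRNA ligase, Trypanosoma cruzi CL Brener (UniProt Q4DA54). Tested at 30 µM. Direction is inferred from retests: higher values go with stronger inhibition. Of about 69,000 compounds tested this way, about 31 (0.045%) reached 50% or more in at least one test.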

SMILES	Pks13 thioesterase	Toxoplasma	CoaBC	MtTrpRS	LiHisRS	TcHisRS
CC(C)c1cc(C(=O)N2CCN(CC3CC3)[C@@H]3CS(=O)(=O)C[C@@H]32)on1	-6.23%	-	-4.479%	-1.555%	5.435%	4.95%
CSc1nccc(N2CCC(NCc3nc(C)cc(C)n3)CC2)n1	-27.99%	-17.69%	6.415%	-1.633%	19.47%	7.143%
CC(=O)Nc1ncc(S(=O)(=O)N2CCCC(C)C2)s1 (stereo unspecified)	-2.292%	-8.14%	-3.686%	2.692%	4.301%	7.407%
COc1ccccc1OCCCn1c(C)c(C)oc1=O	-10.39%	7.993%	6.582%	-1.424%	13.27%	4%
N#Cc1cccc(C(=O)N2CC(c3nc(-c4cccnc4)no3)C2)c1	9.477%	-14.67%	-6.131%	5.243%	0%	1.031%
CNS(=O)(=O)c1ccc(CN2CCCC2c2ccc(F)cc2)cc1 (stereo unspecified)	-6.408%	-10.66%	0.9828%	8.077%	10.75%	12.35%
CC(=O)Nc1ccc(SCC(O)COCc2ccco2)cc1 (stereo unspecified)	-12.44%	-3.117%	0.4603%	5.289%	14.58%	8.333%
Cc1cc(C(=O)N2C[C@@H](C(=O)O)[C@H](C(C)C)C2)cs1	-1.71%	15.99%	2.81%	3.965%	4.082%	11%
CCC(=O)NCc1cc(Br)ccc1OC(F)F	-13.2%	5.837%	-5.804%	0.1776%	22.33%	3.734%
CC(C)N1CC[C@@H]2OC[C@H](C(=O)Nc3cccnc3)C[C@@H]2C1	-44.24%	-	-1.603%	10.73%	-6.944%	1.905%
Cc1nn(C)c2c(NCc3ccccc3F)nc(C3CC3)nc12	-	5.245%	13.18%	1.574%	12.26%	2.51%
O=C(NCc1cccnc1-n1cncn1)c1cncc(Br)c1	-11.81%	11.21%	-4.071%	1.765%	20.51%	8.434%
CCOCCNC(=O)Cc1cccc(I)c1	-12.59%	-0.5882%	6.09%	2.801%	14.91%	1.724%
O=C(O)C(F)(F)F.O=C(O)C(F)(F)F.[H][C@]12CCCN(c3ncc(C)cn3)[C@@]1([H])CN(CC(=O)N(C)C)C2	-	5.977%	-	-	-	-
[H][C@]12CCCCN1CCC[C@@]2(O)CNCC1(Cn2cccn2)CC1	-	-6.95%	-	-	-	-
CCN(CC1COc2ccccc2O1)C(=O)CCn1cncn1 (stereo unspecified)	-12.85%	-7.544%	5.45%	-7.596%	19.64%	1.775%
CN(CCc1cn[nH]c1)C(=O)C(c1ccc(F)cc1)N(C)C (stereo unspecified)	-16.68%	-	0.861%	-2.626%	6.452%	6.897%
CN1CCN(Cc2ccncc2)C(=O)C12CCN(c1nccs1)CC2.O=C(O)C(F)(F)F.O=C(O)C(F)(F)F	-	0.2697%	-	-	-	-
N#Cc1cccc(N2CC3(CCN(C(=O)c4ccncc4)C3)CC2=O)c1.O=C(O)C(F)(F)F (stereo unspecified)	-	-0.4162%	-	-	-	-
c1cnn(-c2ccc(CN3CCCC(Cn4cncn4)C3)cc2)c1 (stereo unspecified)	-7.657%	3.597%	3.15%	-3.324%	8.475%	8%
O=C(NC1CC1)[C@H]1[C@@H]2CN(Cc3ccc(-c4ccn[nH]4)s3)C[C@@H]21	26.51%	-	-2.903%	-2.834%	6.579%	12.32%
[H][C@@]12CN(Cc3csc(C)n3)C[C@]1([H])CN(C(=O)c1ccncc1)C2	-	-17.67%	-	-	-	-
CSC(CNS(C)(=O)=O)c1cccc(Cl)c1 (stereo unspecified)	-0.3431%	-1.765%	-2.554%	13.8%	14.91%	-1.724%
O=C(O)C(F)(F)F.[H][C@@]12CCN(C3CCOCC3)C[C@@]1([H])O[C@H](C(=O)N1CCOCC1)C2	-	5.273%	-	-	-	-
COc1ccc(OC)c(Sc2ncccc2C(=O)NCCSC)c1	-21.24%	1.264%	1.942%	-	13.86%	2.273%
Cn1cc(CN2CCc3onc(C(=O)Nc4cccnc4)c3C2)cn1	-7.442%	-9.619%	-0.6061%	-	21.15%	11.73%
O=C(O)C(F)(F)F.O=C(O)C(F)(F)F.O=C(O)C(F)(F)F.c1cc(CN2CCOCC3(C2)CN(Cc2nccs2)CCO3)ccn1 (stereo unspecified)	-	9.481%	-	-	-	-
Cc1ncc(CN2CCCC2)c2cc(C(=O)c3ccc(Br)cc3)oc12.Cl	-	24.27%	-	-	-	-
c1coc(-c2noc(CN3CCC(c4ccn[nH]4)CC3)n2)c1	-0.181%	-4.385%	7.889%	0.387%	9.615%	-1.667%
Cc1ccc(-n2cnc(Cl)c2CO)cc1	-4.51%	-2.359%	4.04%	2.71%	18.09%	10.1%
Cc1ccncc1NC(=O)C1CSc2ncc(C)c(=O)n2C1 (stereo unspecified)	-10.46%	-12.01%	0.5089%	2.68%	15.38%	0%
Cc1ccoc1-c1nnc(CNCC2CCCN2c2cccnn2)o1 (stereo unspecified)	-28.3%	8.054%	-7.527%	2.549%	17.14%	8.264%
CNS(=O)(=O)Cc1cccc(CNC(=O)Nc2cn[nH]c2)c1	-15%	2.967%	5.612%	-8.087%	16.36%	3.509%
Cc1nc2cc(O)nn2c(C)c1CCC(=O)N(C)Cc1ccccc1	-3.996%	-3.091%	10.5%	5.477%	18.09%	20.1%
CC(O)CN1CCC(CNCc2cccc(C(F)(F)F)c2)CC1 (stereo unspecified)	-11.43%	-5.789%	-1.048%	-6.356%	13.16%	3.779%
Cc1nc(CN2CC[C@H](OCC3CC3)[C@@H]2Cc2cccnc2)cs1.O=C(O)C(F)(F)F.O=C(O)C(F)(F)F	-	-2.451%	-	-	-	-
Cn1cc(CN2CCO[C@@H]3CN(C4CCCC4)C[C@@H]3C2)cn1	-3.521%	-	-5.684%	2.629%	11.5%	7.527%
Cc1cc(N2CCN(C(=O)Cc3c(C)nc(C)[nH]c3=O)CC2)cc(C)n1	-16.77%	5.833%	-2.067%	11.41%	-2.041%	-1.026%
CCc1nc(CCNc2ncccc2C#N)sc1C	5.311%	11.06%	1.595%	-1.069%	9.804%	6.173%
CCc1nc(C)c(C(=O)N2CCCC(c3noc(C)n3)C2)s1 (stereo unspecified)	-26.99%	0.7585%	0%	-4.497%	9.589%	3.941%
COc1cccc(CNc2nnc(C(C)(C)C)o2)c1OC	0.9989%	4.565%	0%	0.9709%	7.692%	5.941%
Cc1nc(C(=O)N2CCN(S(C)(=O)=O)[C@@H]3CS(=O)(=O)C[C@@H]32)cs1	-20.37%	-	7.438%	4.159%	18.67%	3.804%
O=C1CCCN1Cc1ncn2c1CN(C(=O)NC1CCCC1)CCC2	60.09%	-5.182%	7.593%	1.826%	24.47%	15.08%
Cc1ccccc1NC(=O)CNC(C)COc1ccccc1 (stereo unspecified)	-6.605%	-2.065%	3.186%	4.815%	20%	3.571%
CCN1CCN(c2ccc(CNC(=O)c3cnn(C)c3C)cn2)CC1	-16.98%	-1.689%	5.483%	-2.443%	6.897%	5.65%
CC(O)CNCc1c[nH]nc1-c1cc2ccccc2o1 (stereo unspecified)	2.667%	14.85%	-3.738%	-3.745%	15.04%	9.292%
CCCn1ccc(C(=O)N2CCOC(c3nc(-c4cccs4)no3)C2)n1 (stereo unspecified)	-35.8%	-6.063%	1.44%	-0.75%	17.14%	1.075%
Cn1cc(NC(=O)C2CC(=O)N(c3n[nH]c4cccc(F)c34)C2)cn1 (stereo unspecified)	-28.56%	-0.3195%	4.545%	0.3501%	23.68%	2.924%
Cc1csc2c(=O)n3c(nc12)CCN(C(=O)c1ccccn1)CC3	2.463%	-4.223%	2.913%	-	10.14%	9.89%
CCOCC1CN(C(=O)c2cccc(C)n2)Cc2cnn(C)c21 (stereo unspecified)	10.34%	11.9%	-18.62%	13.03%	15.28%	18.1%
Cc1ccnc(C(NC(=O)c2oc(C)nc2C)C2CC2)n1 (stereo unspecified)	-28.43%	-14.79%	-3.782%	-1.372%	12.82%	5.556%
CCc1nc(CCNC(=O)Nc2cc(C(N)=O)sc2C)cs1	-	-1.322%	-5.804%	-0.3552%	-6.796%	7.054%
CN1CCC(CCc2ccnc(Nc3cnccn3)c2)CC1	-7.815%	18.3%	-4.854%	0.2114%	14.29%	6.513%
Cc1ccccc1C1(C(=O)N2CCCC(n3cncn3)C2)CC1 (stereo unspecified)	-5.421%	0%	4.981%	-9.611%	4.464%	2.312%
Cc1sc2nc(CCN)nc(N3CCS(=O)(=O)CC3)c2c1C	4.474%	-10.26%	-12%	0.4472%	-10.26%	3.448%
CNC(=O)C1Cn2ccnc2C2(CCN(Cc3cccs3)CC2)O1 (stereo unspecified)	-39%	-	0.5%	3.909%	0%	9.804%
COc1cc(C(=O)NCCc2ccccc2OC)on1	-16.27%	-5.92%	-9.091%	-8.435%	5.217%	4.124%
COc1cc(CN2CCC3(CC2)[C@H](O)C[C@@H]3OCCO)ccc1F	-15.42%	-	-3.075%	-3.194%	6.452%	-1.149%

5 of the entries, repeated:

SMILES	Pks13 thioesterase	Toxoplasma	CoaBC	MtTrpRS	LiHisRS	TcHisRS
COc1cc(C(=O)NCCc2ccccc2OC)on1	-16.27%	-5.92%	-9.091%	-8.435%	5.217%	4.124%
CCc1nc(CCNc2ncccc2C#N)sc1C	5.311%	11.06%	1.595%	-1.069%	9.804%	6.173%
Cc1ccccc1NC(=O)CNC(C)COc1ccccc1 (stereo unspecified)	-6.605%	-2.065%	3.186%	4.815%	20%	3.571%
Cc1csc2c(=O)n3c(nc12)CCN(C(=O)c1ccccn1)CC3	2.463%	-4.223%	2.913%	-	10.14%	9.89%
Cc1cc(C(=O)N2C[C@@H](C(=O)O)[C@H](C(C)C)C2)cs1	-1.71%	15.99%	2.81%	3.965%	4.082%	11%